# PubChem BioAssay AID1259424 – University of Nebraska Medical Center, 2018
# Test: 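Rank knockdowns across the genome by resemblance to the KSR1 depletion profile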 (primary screen)
# Cells: human HCT116 colon cancer cells
# Reagent: siRNA pool against human genes, 50 nM
# Measurement: 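Six signature mRNAs by branched-DNA multiplex assay, scaled to two housekeeping genes and non-targeting median, log2; matched to mean KSR1 knockdown profile by Pearson correlation and euclidean distance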
# Scale: mean correlation with KSR1 profile: higher = expression change more like KSR1 knockdown
# The deposit covers about 14,000 reagents; shown is a part drawn at random. 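Higher correlation or smaller distance means closer resemblance to KSR1 loss; control wells, including KSR1 knockdowns, recur on many plates.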 Not all columns of the deposit are shown. No sequences are given here. Not stated in the record: the time to read-out.
gene,mean correlation with KSR1 profile
MAP3K8,0.394
BARD1,0.037
CDHR2,-0.314
POM121L1P,0.154
AGPAT5,0.00968
ITK,-0.157
SIPA1,0.787
SPARC,0.822
NENF,-0.473
VPS26A,-0.25
PAFAH1B1,-0.439
CDC45,0.107
GMDS,0.232
XPNPEP1,-0.0181
TMBIM1,0.21
ATP12A,0.661
GPR50,0.564
SIRAL2,-0.0302
HRH4,0.745
ZIC1,0.198
KLHDC2,0.523

The list goes on, starting with the last 3 of the part before.
gene,mean correlation with KSR1 profile
HRH4,0.745
ZIC1,0.198
KLHDC2,0.523
STAT3,-0.475
SZT2,-0.249
CCDC191,-0.217
MBD4,-0.107
MIOX,-0.835
SLC27A6,0.199
RBL1,0.361
LIPE,0.438
IPO9,0.546
CNTNAP1,0.0244
ELP4,-0.446
ZCCHC17,-0.574
METRN,0.446
CMTM6,-0.337
TAS2R10,0.628
MSTN,0.33
ATP5PD,-0.154
ADAM12,0.0958
MPPED1,-0.561
PTGES,-0.616
PCDHGA4,0.366
HIF3A,-0.0332
KRT8,-0.469
PSENEN,0.805
SMARCB1,-0.347
AP2A1,0.264
ZNF18,0.66
DUS2,-0.0817
CLCA3P,0.00306
MAP6D1,0.378
DTNB,-0.231
GPR155,0.565
TRIB3,0.139
KIF25,-0.158
RNF7,0.511
KLRF1,0.566
RPE,0.264
DGKB,0.215
C3orf18,-0.405
LY6D,-0.314
FAM131B,-0.00531
SYNGR2,-0.276
